Data: article PMC12040169 (PLOS Biology, 2025)
This is one part of the list.

system: T1, CTL2-GFP (C. trachomatis L2/434/Bu, GFP-expressing); design: species or system HeLa; Intracellular C. trachomatis growth in HeLa cells, bulk GFP fluorescence relative to DMSO; conditions: bulk GFP, single well; 28.5 h, 10 µM; inhibitor
T1 construct: L2/434/Bu, GFP-expressing

| Structure (SMILES) | % of control remaining [%] |
| --- | --- |
| O=C(/C=C/c1ccc2c(c1)OCO2)N1CCN(c2ncccn2)CC1 [CBK144501] | 123.432 |
| CCCc1n[nH]c(=S)n1CC(=O)Nc1cc(NC(=O)C2CC2)ccc1C [CBK297740] | 131.913 |
| O=C(c1ccco1)N1CCN(c2cc(-c3ccsc3)ncn2)CC1 [CBK037690] | 225.051 |
| O=C(NCCn1nc(-c2cccs2)ccc1=O)C1CCCC1 [CBK283840] | 96.1697 |
| O=C(Nc1ccc(N2CCNCC2)nc1)c1cnccn1 [CBK029436T] | 124.356 |
| Cc1ccc(C2N(Cc3ccccc3)CCN2Cc2ccccc2)o1 [CBK260883] | 108.645 |
| CCC1CCCCN1C(=O)c1cccs1 (stereo not drawn) [CBK074214] | 117.365 |
| O=C(NC[C@H]1C[C@@H]2CC[N@]1C[C@@H]2CN1CCN(c2ncccn2)CC1)c1ccco1 [CBK289115] | 140.92 |
| CC1OCN(c2ccc(C(C)(C)C)cc2)Cn2c1nc1ccccc12 (stereo not drawn) [CBK018706] | 125.534 |
| O=C(O)CCn1c(C2CCCCC2)nc2ccccc21 [CBK111480] | 87.9607 |
| CCC(C)(C)Nc1cccnc1N(C)C1CCN(C(=O)c2cc3cc(N)ccc3[nH]2)CC1 [CBK016674] | 132.394 |
| CC(C)N1CCC(=NNC(=O)COc2ccc(Cl)cc2Cl)CC1 [CBK262614] | 100 |
| CN1C(=O)CC2(C1=O)C(=O)N(CCN1C(=O)c3ccccc3C1=O)c1ccc(F)cc12 (stereo not drawn) [CBK075451] | 136.352 |
| Cc1ccc(Cl)c(OCc2nnc(SCC(=O)O)n2N)c1 [CBK268992] | 70.2219 |
| Cc1cc2cc(F)ccc2n1CCCN1CCN(c2ccncc2)CC1 [CBK039119G] | 125.445 |
| CCNC(=S)NC1CC[C@@]2(C3=CC=CC4C=CC=CC34)CCN(C)[C@H]2C1 (stereo partly drawn) [CBK003596C] | 137.088 |
| O=C(NC1CCCCC1)C1CCCN(C(=O)NCc2ccccn2)C1 (stereo not drawn) [CBK305814] | 100.415 |
| CCc1ccc2oc(-c3ccc(NC(=O)COc4ccc(Cl)cc4Cl)cc3O)nc2c1 [CBK263424] | 113.342 |
| CCc1nc(-c2ccc(C)c(S(=O)(=O)N3CCN(c4ccccc4)CC3)c2)no1 [CBK294434] | 154.995 |
| O=C(O)c1ccc(NS(=O)(=O)c2ccc(C(F)(F)F)cc2[N+](=O)[O-])cc1 [CBK034063] | 107.598 |
| O=C(O)c1ccc(N2C(=O)CC(S/C(=N\c3ccccc3)Nc3ccccc3)C2=O)cc1 (stereo not drawn) [CBK262191] | 91.4257 |
| CCNC(=S)NS(=O)(=O)c1ccc(C)cc1 [CBK288452] | 140.878 |
| O=C(c1ccnc2ccccc12)N1CCc2ccccc21 [CBK200283] | 104.412 |
| Cc1ccc(C(=O)N2CC(=O)N(CCO)C2)cc1 [CBK045864] | 106.454 |
| CCC(=O)Nc1ccc(C(=O)Nc2ccc(S(=O)(=O)N3CCCCC3)cc2)cc1 [CBK269549] | 107.033 |
| O=c1n(CCCNCc2ccc(Cl)cc2Cl)nc2n1CCCC2 [CBK305382] | 133.642 |

A portion taken from the entries so far:

| Structure (SMILES) | % of control remaining [%] |
| --- | --- |
| CC1OCN(c2ccc(C(C)(C)C)cc2)Cn2c1nc1ccccc12 (stereo not drawn) [CBK018706] | 125.534 |
| O=C(O)CCn1c(C2CCCCC2)nc2ccccc21 [CBK111480] | 87.9607 |
| CCC(C)(C)Nc1cccnc1N(C)C1CCN(C(=O)c2cc3cc(N)ccc3[nH]2)CC1 [CBK016674] | 132.394 |

Continuation:

| Structure (SMILES) | % of control remaining [%] |
| --- | --- |
| N#CCCCN1CCC(Oc2nccnc2OCc2cc(Cl)cc(Cl)c2)CC1 [CBK153634] | 105.686 |
| CC(C)n1c(=O)n(CCN2CCCCC2)c2cccnc21 [CBK283932] | 128.32 |
| Nc1nc(N)nc(Cn2c(-c3nonc3N)nc3ccccc32)n1 [CBK263072] | 100 |
| CCCn1ncc(CN2CCCC(c3cc4cccnc4[nH]3)C2)c1C (stereo not drawn) [CBK284957] | 85.3522 |
| COc1ccc(Oc2cncc(OC3CCN(CC(=O)Nc4c(C)cccc4C)C3)n2)cc1OC (stereo not drawn) [CBK084403] | 105.026 |
| CC(=O)N1CCc2cc(C(=O)CN3CCC(c4ccccc4)C3)ccc21 (stereo not drawn) [CBK282931] | 100.76 |
| CSc1nc(SCC(=O)N(c2ccccc2)c2ccccc2)c2c3c(sc2n1)CCC3 [CBK267715] | 127.662 |
| O=C(O)C1CCCN1S(=O)(=O)c1ccc(Cl)c(Cl)c1 (stereo not drawn) [CBK217856] | 124.835 |
| COc1ccccc1CC(=O)NCCC(=O)N1CCN(c2ccc(F)cc2)CC1 [CBK298318] | 146.644 |
| Cc1csc(C(=O)N2CCCC(c3cc(O)cc(C)n3)C2)c1 (stereo not drawn) [CBK283423] | 133.64 |
| Fc1ccccc1CN1CCN(Cc2ccccn2)CC1 [CBK265194G] | 104.634 |
| CCOC(=O)C1CCN(S(=O)(=O)c2cccs2)CC1 [CBK051137] | 115.641 |
| Cc1cc(COc2nccnc2N2CCN(CC3CCCCC3)CC2)no1 [CBK084205] | 111.664 |
| CC(=O)Nc1cccc(-c2cnc(N)c(N3CCC(C(=O)O)CC3)n2)c1 [CBK063657] | 102.588 |
| C=C(C)Cn1c(SCC(C)C)nnc1-c1ccccc1OC [CBK200071] | 130.515 |
| O=C(c1ccco1)N1CCN(c2cc(-c3cc4ccccc4o3)ncn2)CC1 [CBK091114] | 175.233 |
| COCCNC(=O)c1cc(-c2ccc(C)cc2)nc2c1cnn2C(C)C [CBK305033] | 99.9237 |
| COC(=O)Nc1sc2c(c1C(=O)N1CCOCC1)CCC(C)C2 (stereo not drawn) [CBK307413] | 138.799 |
| Cc1ccc(-c2cc(C(=O)NCc3ccc(F)cc3Cl)n[nH]2)cc1 [CBK288102] | 130.324 |
| O=C(O)CC1C(=O)NCCN1Cc1ccc(-c2ccccc2)cc1 (stereo not drawn) [CBK269812] | 106.96 |
| O=C1CC2(CCC3C(C(=O)NC4CCCC4)C32)Oc2ccccc21 (stereo not drawn) [CBK284922] | 119.447 |
| O=[N+]([O-])c1cc2c(cc1CN1CCN(Cc3ccccc3)CC1)OCO2 [CBK261548] | 100 |
| COc1cc(OC)cc(C(=O)Nc2nnc(C(F)(F)F)s2)c1 [CBK099828] | 98.2646 |
| CC(NC(=O)c1cc(-c2ccccc2)nc2ccccc12)c1cccc(S(N)(=O)=O)c1 (stereo not drawn) [CBK298285] | 135.526 |
| O=C(NC1CCCOC1)c1cc(-c2cccs2)no1 (stereo not drawn) [CBK282565] | 122.617 |
